Source: the supplement of paper PMC4604168 (melanoma cell lines)
The other results are listed elsewhere or left out. Repeats are few or missing, and single values can be far off.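 Cells were imaged in 1,536-well plates, and nuclei stained with an antibody against cleaved PARP were counted against all DNA-stained nuclei to give the apoptosis fraction. Screening doses were chosen to leave most cells alive, and resting and induced cleaved-PARP levels differ strongly between cell lines.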

System: G361
Assay: cleaved PARP positive nuclei fraction relative to DMSO control; melanoma cells; higher = more apoptosis
Settings: library dose: low library concentration; 72 h

SMILES | cleaved PARP positive nuclei fraction
COc1ccc(C2=N[C@@H](c3ccc(Cl)cc3)[C@@H](c3ccc(Cl)cc3)N2C(=O)N2CCNC(=O)C2)c(OC(C)C)c1 [Nutlin-3] + Cn1cc(/C=C2\C(=O)Nc3cccnc32)c2ccccc21 [GW441756] (first compound 0.1 µM, partner dose 0.4 µM) | 75.1%
COc1ccc(C2=N[C@@H](c3ccc(Cl)cc3)[C@@H](c3ccc(Cl)cc3)N2C(=O)N2CCNC(=O)C2)c(OC(C)C)c1 [Nutlin-3] + COc1ccc(COc2ccc(Cc3cnc(N)nc3N)cc2OC)cc1 [GW2580] (first compound 0.1 µM, partner dose 1 µM) | 55.6%
C[C@@H](N)c1ccc(C(=O)Nc2ccnc3[nH]ccc23)cc1 + O=C1NC(=O)/C(=C/c2ccc(-c3ccc(F)cc3O)o2)S1 [AS252424] (first compound 0.4 µM, partner dose 1 µM) | 94.1%
C[C@]1(O)C[C@@H](c2nc(-c3ccc4ccc(-c5ccccc5)nc4c3)c3c(N)nccn32)C1 + Oc1cc(-c2nc(-c3ccccc3)[nH]c2-c2ccncc2)ccc1Cl [L779450] (first compound 0.4 µM, partner dose 0.2 µM) | 99.9%
CCCCCCCCc1ccc(CCC(N)(CO)CO)cc1 [fingolimod] + COC(=O)c1sccc1S(=O)(=O)Nc1ccc(Nc2ccccc2)cc1OC [GSK0660] (first compound 2 µM, partner dose 1 µM) | 100%
CCN(CC)CCNC(=O)c1c(C)[nH]c(/C=C2\C(=O)Nc3ccc(F)cc32)c1C [sunitinib] + O=C1NC(=O)/C(=C/c2ccc(-c3ccc(F)cc3O)o2)S1 [AS252424] (first compound 0.4 µM, partner dose 1 µM) | 226%
